Test results from PMC4822050, “Hemi-methylated DNA opens a closed conformation of UHRF1 to facilitate its histone recognition” (Nature Communications, 2016).
Construct, isoform or probe ends are uncertain for at least one entry. For part of these data: No signal at the amounts used counts as a negative. For part of these data: At least one verdict was read from the data and is not stated in words by the source.

Protein sequences, listed by entry. Tags and fused reporters are not part of them. Residues count along the entry.
UniProt Q96T88, 414-617: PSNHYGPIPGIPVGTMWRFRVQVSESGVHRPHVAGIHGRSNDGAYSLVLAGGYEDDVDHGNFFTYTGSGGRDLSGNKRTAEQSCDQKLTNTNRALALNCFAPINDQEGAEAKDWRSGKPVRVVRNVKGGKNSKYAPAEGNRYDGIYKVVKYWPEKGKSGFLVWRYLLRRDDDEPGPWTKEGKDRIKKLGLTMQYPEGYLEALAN
UniProt Q96T88, 414-674: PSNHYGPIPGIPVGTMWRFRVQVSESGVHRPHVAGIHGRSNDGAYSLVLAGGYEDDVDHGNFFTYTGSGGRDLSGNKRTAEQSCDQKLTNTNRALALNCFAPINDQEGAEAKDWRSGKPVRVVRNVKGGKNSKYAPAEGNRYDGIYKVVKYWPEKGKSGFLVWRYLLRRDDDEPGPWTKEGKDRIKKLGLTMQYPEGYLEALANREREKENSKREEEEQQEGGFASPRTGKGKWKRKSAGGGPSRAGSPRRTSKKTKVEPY
UniProt Q96T88, 587-674: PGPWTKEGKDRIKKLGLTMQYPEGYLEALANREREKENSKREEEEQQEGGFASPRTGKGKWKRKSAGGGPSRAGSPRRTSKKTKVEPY

Columns and labels:
SRA (human) [1] = biological target: SRA (human) (UniProt Q96T88); assay: FP; details: 5-methyl-dC at position 6 of strand 2 (GTCAGXGCATGG), recombinant protein, residues 414-617, protein details: GST tag cleaved (PreScission), label: FAM on strand 1
[2] = biological target: UHRF1 full-length (human) (UniProt Q96T88); assay: pull-down; details: without histone peptide; 5-methyl-dC at position 6 of strand 1 (GAGGCXGCCTGC); pull-down: 20 mM HEPES-NaOH pH 8.0, 100 mM NaCl, 5% glycerol, 0.1% Triton X-100, 4 C; recombinant protein; residues 1-793; protein details: GST tag cleaved (PreScission); label: 5' biotin on strand 2
SRA (human) [3] = biological target: SRA (human) (UniProt Q96T88); assay: ITC; details: 5-methyl-dC at position 6 of strand 1 (GGGCCXGCAGGG); ITC: 10 mM HEPES pH 8.0, 100 mM NaCl, 18 C; recombinant protein; residues 414-617; protein details: GST tag cleaved (PreScission)
SRA-Spacer (human) = SRA-Spacer (human) (UniProt Q96T88); assay: ITC; details: 5-methyl-dC at position 6 of strand 1 (GGGCCXGCAGGG); ITC: 10 mM HEPES pH 8.0, 100 mM NaCl, 18 C; recombinant protein; residues 414-674; protein details: GST tag cleaved (PreScission)
Spacer (human) = Spacer (human) (UniProt Q96T88); assay: ITC; details: no interaction; 5-methyl-dC at position 6 of strand 1 (GGGCCXGCAGGG); ITC: 10 mM HEPES pH 8.0, 100 mM NaCl, 18 C; recombinant protein; residues 587-674; protein details: GST tag cleaved (PreScission)

What does the source list for “CCATGCGCTGAC (double strand) [FAM-12bp-HM-DNA]”?
Kd (SRA (human) [1]; 150 mM NaCl): 5.92 µM; Kd (SRA (human) [1]; DNA length series): 12.8 µM

Does “GAGGCCGCCTGC (double strand) [biotin-hm-DNA 12 bp (pull-down)]” bind [2]?
Result: binds

Which Kd (SRA (human) [3]) does the source give for “GGGCCCGCAGGG (double strand) [12-bp hm-DNA (ITC)]” here?
Its Kd is 25.1 µM.

And the Kd (SRA-Spacer (human))?
Its Kd is 1.75 µM.

Does “GGGCCCGCAGGG (double strand) [12-bp hm-DNA (ITC)]” bind (Spacer (human))?
Result: no binding
